The other results are listed elsewhere or left out.
The molecules below were run on T1, CTL2-GFP (C. trachomatis L2/434/Bu, GFP-expressing). Details: bulk GFP, single well; 28.5 h, 10 µM; inhibitor.
T1 construct: L2/434/Bu, GFP-expressing
Set-up: species or system HeLa; Intracellular C. trachomatis growth in HeLa cells, bulk GFP fluorescence relative to DMSO

Structure (SMILES)	% of control remaining [%]
COc1cc(CN2CCC(N3CCCCC3)CC2)c([N+](=O)[O-])cc1OC [CBK261858]	124.482
CCN(CC)C(=O)C1CCCN(C(=O)Nc2cccnc2)C1 (stereo not drawn) [CBK156157]	95.035
C=C(C)Cn1c(SCC(C)C)nnc1-c1cccs1 [CBK200086]	96.2259
CN(CCOc1ccc(Cl)cc1)C(=O)COc1cc2ccccc2cc1C(=O)O [CBK296720]	140.977
O=S(=O)(Nc1nnn[nH]1)c1ccc(-c2ccon2)s1 [CBK062391]	103.768
Nc1nonc1C(=O)NCCNC(=O)c1ccco1 [CBK058480]	109.098
Cc1ccc(S(=O)(=O)Nc2nc(C)c(C(=O)O)s2)cc1[N+](=O)[O-] [CBK045565]	96.5334
Cc1noc2nc(-c3cccnc3)cc(C(=O)O)c12 [CBK288207]	132.671
O=C1CCC[C@]2(CN(Cc3ccccc3)C[C@H]2c2cccnc2)N1 [CBK283349]	150.187
CCN(CC)CCNc1nc2cc(Cl)ccc2[nH]1 [CBK262453]	100
CCS(=O)(=O)N1CCN(Cc2ccc3c(c2)OCO3)CC1 [CBK074545]	119.049
COc1ccccc1NS(=O)(=O)c1ccc(C)c(C(=O)NCC(c2ccco2)N2CCCCC2)c1 (stereo not drawn) [CBK296669]	115.855
CCCCCC(=O)Nc1ccc(C(=O)Cn2nc(C(=O)O)c3ccccc3c2=O)cc1 [CBK295628]	142.323
O=C(O)CCC(=O)N(Cc1ccco1)C1CC(=O)N(c2ccc(F)cc2)C1=O (stereo not drawn) [CBK287059]	126.732
O=C(NCc1cccnc1)c1ncoc1-c1cccc(Cl)c1 [CBK282403]	141.985
Cc1cc(C)c(S(=O)(=O)N2CCC(C(=O)NNC(=S)NC3CCCC3)CC2)c(C)c1 [CBK266844]	161.556
COc1ccc(C(=O)NCCCN(C)C)cc1Nc1cncc(-c2ccc(O)cc2)n1 [CBK126938T]	102.71
Cc1nc(CN2[C@H]3CCCCC(=O)N[C@@]3(C)C[C@H]2c2cccc(C(F)(F)F)c2)cs1 [CBK285701]	122.115
Cc1nn(C)c(N2CCNCC2)c1NC(=O)c1cnccn1 [CBK050308T]	123.458
O=C(Nc1ccccc1)N1C[C@@H]2C[C@H](C1)c1c(-c3cccnc3)ccc(=O)n1C2 [CBK289193]	155.63
CCOc1ccsc1C(=O)Nc1cc2ccccc2c(N2CCNCC2)n1 [CBK036341T]	110.149
CN1C(=O)c2ccccc2C(=O)[C@@]2(C)CN(C3CCCC3)C[C@@H]12 [CBK283476]	135.735
O=C(O)c1ccc(N2CCCCS2(=O)=O)cc1Cl [CBK287142]	136.536
Cc1ccc(-c2nn(CCC#N)cc2C(=O)N2CCCCC2)cc1 [CBK306119]	115.035
CC(=O)Oc1cc(C)cc(C#N)c1 [CBK038296]	116.921
O=C(O)c1cccc2c1Sc1ccccc1O2 [CBK017129]	122.902

Structure (SMILES)	% of control remaining [%]
Cc1ccc(C(=O)NC(=S)Nc2ccc(-c3ccc(CO)o3)cc2)cc1[N+](=O)[O-] [CBK269127]	92.8723
S=c1nc(-c2ccccc2)n2cc(Br)ccc2n1 [CBK026696]	122.502
COC(=O)c1c(NC(=O)C2C3C=CC(C3)C2C(=O)O)sc2c1CCCCC2 (stereo not drawn) [CBK262653]	100
CSCc1nc(CS(=O)(=O)Cc2cccc(C(F)(F)F)c2)no1 [CBK023617]	152.116
Cc1cccc(CN2CCN(c3ccccc3C(O)c3nccn3C)CC2)c1 (stereo not drawn) [CBK286441]	137.529
COc1ccccc1Cc1cccc(C2CCN(C(=O)Cc3ccccc3)CC2)n1 [CBK286240]	125.063
Cc1nn(CCC(=O)NCc2ccco2)c(C)c1Cl [CBK269961]	131.615
O=c1[nH]c(-c2ccccc2)nc2c1CN(Cc1ccc(F)cc1)CC2 [CBK282329]	118.111
Cc1noc(C)c1CNS(=O)(=O)N1CCOC(c2ccccc2)C1 (stereo not drawn) [CBK305306]	107.676
Cc1ccc(-n2c(C)c([N+](=O)[O-])c3ccc(O)cc32)cc1 [CBK094246]	119.826
Clc1ccc(Cn2ncc3c(NCc4cccnc4)ncnc32)cc1 [CBK300478]	94.0279
Cc1cccc(C(C)C)c1NC(=O)C1Cc2ccccc2CN1S(=O)(=O)c1ccc(F)cc1 (stereo not drawn) [CBK267992]	101.369
CCN1CCN(S(=O)(=O)c2ccccc2F)CC1 [CBK100558]	87.8346
O=C(CSCc1ccc(C(=O)O)cc1)Nc1ccc2ccccc2c1 [CBK299833]	132.866
CC1(C)CC(=O)C2=C(C1)OC(=O)CC2c1ccc(Cl)cc1Cl (stereo not drawn) [CBK007777]	157.718
Cc1nn(-c2ccccn2)c2c1-c1oncc1CC2 [CBK287280]	170.898
C=CCn1c(Cc2csc(NC(=O)c3ccc(S(C)(=O)=O)cc3)n2)n[nH]c1=S [CBK295340]	151.985
Cc1ccc(NS(=O)(=O)c2ccc(OC(F)(F)F)cc2)nc1 [CBK043577]	105.491
O=c1c(N2CCC(Sc3ccccc3)CC2)nccn1Cc1ccc(OC(F)(F)F)cc1 [CBK155257]	93.8876
CN(C)C1CCN(C(=O)c2ccc(-c3cnc(OCC4CCN(C(=O)OC(C)(C)C)CC4)nc3)cc2)C1 (stereo not drawn) [CBK169767]	129.99
CC(C)(C)Oc1nc(=O)[nH]c(=O)[nH]1 [CBK007194]	110.097
CN(C)CCn1nc(-c2cccc(-n3cccc3)c2)oc1=O [CBK284002]	112.623
COc1cc(/C=N\NC(=O)CSc2nc3ccccc3o2)ccc1O [CBK263630]	132.333
Cc1nn(CC(=O)N2CCN(Cc3ccccn3)CC2)c(C)c1Cl [CBK305978]	90.262
Cc1c(C(=O)N2CCC[C@H]2[C@H](O)c2nccs2)oc2ccccc12 [CBK284281]	68.9465
CCN(CCO)c1ccc(Nc2cc(-c3cc(C(F)(F)F)cc(C(F)(F)F)c3)ncn2)cc1 [CBK090994]	173.706

Structure (SMILES)	% of control remaining [%]
CCCc1nn(CC(=O)N(C)C)c(=O)c2cc3ccsc3n12 [CBK284193]	83.0975
O=C(O)c1cccc(-n2ncc(-c3ccccc3C(F)(F)F)n2)c1 [CBK112721]	87.5212
CC1CCc2c(sc(NC(=O)c3ccccc3)c2CN2CCCC2)C1 (stereo not drawn) [CBK265908]	157.679
CCOC(=O)c1cccc(-n2cc(-c3ccc(Br)cc3F)nn2)c1 [CBK113153]	105.188
Oc1cc(C(F)(F)F)nc(NCc2cccc3ccccc23)n1 [CBK003716]	76.5662
CCOC(=O)CN1CCN(S(=O)(=O)c2ccc(F)c(Cl)c2)CC1 [CBK043782]	127.804
CS(=O)(=O)N(CC(=O)Nc1ccccc1-c1ccccc1)c1ccc(F)c(Cl)c1 [CBK268539]	89.1961
COc1ccc(C(C)C)cc1-c1cncc(Nc2ccc(Cl)cc2)n1 [CBK065285]	118.727
Cc1cc(NC(=O)CSc2nc(-c3ccc(F)cc3)cc(C(F)(F)F)n2)n(-c2ccccc2)n1 [CBK266248]	193.668
CC1CCN(Cc2ccc(-c3nnn(CC(=O)NCc4ccc(S(N)(=O)=O)cc4)n3)cc2)CC1 [CBK144141C]	99.7265
O=C(N[C@H]1CO[C@H]2[C@@H]1OC[C@@H]2Nc1nccc(-c2cccc(F)c2)n1)C1CC1 [CBK289535]	96.5656
Cc1cccc(C(=O)Nc2c(C(=O)Nc3ccc(Br)cc3)cnn2-c2ccccc2)c1 [CBK264839]	78.8669
Cc1nonc1/N=N/N(CC(=O)N1CCOCC1)c1nonc1C [CBK262399]	116.213
O=C(CSc1nncc(=O)[nH]1)NCc1ccccc1 [CBK270246]	139.951
CCOC(=O)N(C)c1c(CC)nc2c(OCC(=O)C(C)(C)C)cccn12 [CBK147382]	107.415
COCc1nc2ccccc2n1CC(=O)N1CCC(c2ccccc2)C1 (stereo not drawn) [CBK282211]	120.916
S=C(Nc1ccccc1)N1CCCCC1CN1CCCCC1 (stereo not drawn) [CBK006196]	82.0382
O=C(NCCN1CCOCC1)NCC12CC3CC(C1)CC(c1ccccc1)(C3)C2 [CBK268388]	116.662
Cn1nc(C2CCN(C(=O)CCc3ccccc3)CC2)c2cccnc21 [CBK285050]	113.614
CC(=O)c1cccc(NC(=O)Nc2ccc(S(=O)(=O)Nc3cc(C)on3)cc2)c1 [CBK299794]	38.4293
CN1C[C@@H](NS(C)(=O)=O)C[C@H]1c1nc(-c2ccc3c(c2)OCO3)no1 [CBK288875]	116.238
O=S(=O)(Nc1cccnc1N1CCOCC1)c1ccc(F)cc1 [CBK051009]	75.5261
CCn1ncc(CN2CCCCCC2c2cc(C)on2)c1C (stereo not drawn) [CBK282141]	142.739
CCc1noc(C)c1C(=O)N1CC(C(=O)N2CCN(c3ccccc3)CC2)C1 [CBK285667]	124.678
O=c1[nH]c(=O)c2cc(S(=O)(=O)NC3CCN(Cc4ccccc4)C3)ccc2[nH]1 (stereo not drawn) [CBK286380]	109.06
CCc1nc2c(OCCCN(C)S(C)(=O)=O)cccn2c1N(C)C(=O)c1ccco1 [CBK147435]	119.231

Copied from the list.
Cc1ccc(-n2c(C)c([N+](=O)[O-])c3ccc(O)cc32)cc1 [CBK094246] – % of control remaining [%]: 119.826
CC1CCN(Cc2ccc(-c3nnn(CC(=O)NCc4ccc(S(N)(=O)=O)cc4)n3)cc2)CC1 [CBK144141C] – % of control remaining [%]: 99.7265
Cn1nc(C2CCN(C(=O)CCc3ccccc3)CC2)c2cccnc21 [CBK285050] – % of control remaining [%]: 113.614
CN1C[C@@H](NS(C)(=O)=O)C[C@H]1c1nc(-c2ccc3c(c2)OCO3)no1 [CBK288875] – % of control remaining [%]: 116.238
